Assay results taken from US20110112032A1, “Regulation of Brain Natriuretic Peptide and Catecholamines for the Treatment of Cardiovascular Diseases” (priority 2005, published 2011).

Tested on: rat myocardial infarct model
Format: in vivo
[1] = N = 6, DPDPE 200 ng/kg iv, labetalol 2 mg/kg iv

Molecule: CC(CCc1ccccc1)NCC(O)c1ccc(O)c(C(N)=O)c1 (stereo not shown) [Labetalol, labetalol]
- Body wt [1]: 286 ± 5.1 g
- LV wt [1]: 801 ± 1 mg

Molecule: [D-Pen^25]-enkephalin [DPDPE]
- Body wt (rat, in vivo): 287.5 ± 4.1 g
- LV wt (rat, in vivo): 800 ± 1 mg

Where two headings read alike, the source gives them in different places.
